Results as given in US20210261642A1, “SOLUBILITY OF GLP-1 PEPTIDE” (Novo Nordisk A/S, priority 2017, published 2021).
The source gives many values for each of these; only a part stands here.

Test: Assay (I): Determination of Solubility (96-well plate, pH 3.0-11.0, organic solvent 0-70% w/w, UV absorption at 280 nm)
Format: physicochemical
Settings: Method 1 (evaporation)
Description: Assay (I): Determination of Solubility
96-Well Plate Preparation
96-well plates containing target peptide in a solid form were prepared in one of two ways:
Method 1 (evaporation): Addition of 100 μl stock solution of said peptide at a concentration of 4-6 mg/ml to each well of a 96-well half area plate (150 μl well size). Subsequently the solvent was evaporated by applying a vacuum until the solvent was completely removed.
Method 2 (precipitation): Addition of a certain volume of a stock solution of said peptide containing to each well of a 96-well half area plate followed by the addition of a certain volume of concentrated phosphoric acid to obtain a pH of 4.6 followed by addition of a certain volume of ethanol resulting in a final ethanol concentration of 20% v/v. Subsequently the plate was stored at 4° C. for 1 h and then centrifuged at 4,000 rpm for 20 min. Finally the supernatant was removed. The concentration of the stock solution was chosen in a way that the final amount of peptide after supernatant removal was >0.4 mg per well.
In both cases the stock solution was prepared by adding de-ionized water to a certain amount of powder of said peptide followed by a stepwise addition of small amounts of a concentrated sodium hydroxide solution until said peptide was completely in solution.
To determine solubility of a target peptide at different pH and organic solvent concentrations, two different buffer systems were used in independent experiments to cover the whole range from pH 3.0 to pH 11.0. Buffer system 1 covers pH 3.0-7.5 and buffer system 2 covers pH 7.5-11.0. For each buffer system 96 different solvent compositions were premixed in the following way: • 1. A low pH buffer (adjusted to either pH 3.0 or pH 7.5) and a high pH buffer (adjusted to either pH 7.5 or pH 11.0) were mixed at 8 different ratios to obtain values between pH 3.0 and pH 7.5 or pH 7.5 and pH 11.0, respectively. The total volume after mixing was 300 μl. • 2. 12 different amounts of organic solvent were then added to these buffers to obtain organic solvent (e.g. ethanol) concentrations between 0 and 70% w/w. • 3. Water was then added to obtain a total weight of 1.0 g of solvent in each well.
After preparing the 96 different solvent systems, 100 μl of each system was transferred to the 96-well plate containing the solid form of the target peptide (prepared as described in the section “96-well plate preparation”). The plate was then stored at a given temperature (between 5° C. and 70° C.) for a given time on a rotating shaker set to 400 rpm. At regular time intervals the plate was centrifuged (4,000 rpm for 10 min) and a 10 μl sample was taken from each well. The samples were then analysed by UV absorption at 280 nm for peptide quantification. Peptide concentration results are given as UV absorption at 280 nm of the sample subtracted UV absorption at 280 nm of a well comprising 10 μl water.
The buffers used were as follows: • Buffer system 1 (for the pH range from pH 3.0-7.5)
• Buffer system 2 (for the pH ranae from pH 7.5-11.0)
Solubility of liraglutide was determined using Assay (I) described herein. Liraglutide was prepared using Method 1 (evaporation) or Method 2 (precipitation) as described in subsection “96-well plate preparation”.

Peptide concentration after 180 min (DMF 57.3% w/w, pH 7.2, RT): 0.4 mg/mL
Peptide concentration after 24 h (DMF 57.3% w/w, pH 7.2, RT): 0.5 mg/mL
Peptide concentration after 5 min (DMF 57.3% w/w, pH 7.5, RT): 1.6 mg/mL
Peptide concentration after 180 min (DMF 57.3% w/w, pH 7.5, RT): >4.0 mg/mL
Peptide concentration after 5 min (DMF 57.3% w/w, pH 8.0, RT): 1.3 mg/mL
Peptide concentration after 180 min (DMF 57.3% w/w, pH 8.0, RT): >4.0 mg/mL
Peptide concentration after 5 min (DMF 57.3% w/w, pH 8.5, RT): 3.3 mg/mL
Peptide concentration after 180 min (DMF 57.3% w/w, pH 8.5, RT): >4.0 mg/mL
Peptide concentration after 5 min (DMF 57.3% w/w, pH 9.0, RT): 2.7 mg/mL
Peptide concentration after 180 min (DMF 57.3% w/w, pH 9.0, RT): >4.0 mg/mL
Peptide concentration after 5 min (DMF 57.3% w/w, pH 9.5, RT): 2.5 mg/mL
Peptide concentration after 180 min (DMF 57.3% w/w, pH 9.5, RT): >4.0 mg/mL
Peptide concentration after 5 min (DMF 57.3% w/w, pH 10.0, RT): 3.1 mg/mL
Peptide concentration after 180 min (DMF 57.3% w/w, pH 10.0, RT): >4.0 mg/mL
Peptide concentration after 5 min (DMF 57.3% w/w, pH 10.5, RT): 3.7 mg/mL
Peptide concentration after 180 min (DMF 57.3% w/w, pH 10.5, RT): >4.0 mg/mL
Peptide concentration after 5 min (DMF 57.3% w/w, pH 11.0, RT): 2.1 mg/mL
Peptide concentration after 180 min (DMF 57.3% w/w, pH 11.0, RT): >4.0 mg/mL
Peptide concentration after 5 min (DMF 63.6% w/w, pH 3.1, RT): 0.3 mg/mL
Peptide concentration after 180 min (DMF 63.6% w/w, pH 3.1, RT): 0.3 mg/mL
Peptide concentration after 24 h (DMF 63.6% w/w, pH 3.1, RT): 0.4 mg/mL
Peptide concentration after 5 min (DMF 63.6% w/w, pH 4.8, RT): 0.2 mg/mL
Peptide concentration after 180 min (DMF 63.6% w/w, pH 4.8, RT): 0.2 mg/mL
Peptide concentration after 24 h (DMF 63.6% w/w, pH 4.8, RT): 0.2 mg/mL
Peptide concentration after 5 min (DMF 63.6% w/w, pH 5.8, RT): 0.2 mg/mL
Peptide concentration after 180 min (DMF 63.6% w/w, pH 5.8, RT): 0.3 mg/mL
Peptide concentration after 24 h (DMF 63.6% w/w, pH 5.8, RT): 0.3 mg/mL
Peptide concentration after 5 min (DMF 63.6% w/w, pH 6.3, RT): 0.2 mg/mL
Peptide concentration after 180 min (DMF 63.6% w/w, pH 6.3, RT): 0.3 mg/mL
Peptide concentration after 24 h (DMF 63.6% w/w, pH 6.3, RT): 0.3 mg/mL
Peptide concentration after 5 min (DMF 63.6% w/w, pH 6.7, RT): 0.3 mg/mL
Peptide concentration after 180 min (DMF 63.6% w/w, pH 6.7, RT): 0.3 mg/mL
Peptide concentration after 24 h (DMF 63.6% w/w, pH 6.7, RT): 0.3 mg/mL
Peptide concentration after 5 min (DMF 63.6% w/w, pH 6.9, RT): 0.3 mg/mL
Peptide concentration after 180 min (DMF 63.6% w/w, pH 6.9, RT): 0.4 mg/mL
Peptide concentration after 24 h (DMF 63.6% w/w, pH 6.9, RT): 0.3 mg/mL
Peptide concentration after 5 min (DMF 63.6% w/w, pH 7.2, RT): 0.4 mg/mL
Peptide concentration after 180 min (DMF 63.6% w/w, pH 7.2, RT): 0.5 mg/mL
Peptide concentration after 24 h (DMF 63.6% w/w, pH 7.2, RT): 0.5 mg/mL
Peptide concentration after 5 min (DMF 63.6% w/w, pH 7.5, RT): 3.4 mg/mL
Peptide concentration after 180 min (DMF 63.6% w/w, pH 7.5, RT): >4.0 mg/mL
Peptide concentration after 5 min (DMF 63.6% w/w, pH 8.0, RT): 1.6 mg/mL
Peptide concentration after 180 min (DMF 63.6% w/w, pH 8.0, RT): >4.0 mg/mL
Peptide concentration after 5 min (DMF 63.6% w/w, pH 8.5, RT): 3.8 mg/mL
Peptide concentration after 180 min (DMF 63.6% w/w, pH 8.5, RT): >4.0 mg/mL
Peptide concentration after 5 min (DMF 63.6% w/w, pH 9.0, RT): 3.1 mg/mL
Peptide concentration after 180 min (DMF 63.6% w/w, pH 9.0, RT): >4.0 mg/mL
Peptide concentration after 5 min (DMF 63.6% w/w, pH 9.5, RT): 2.9 mg/mL
Peptide concentration after 180 min (DMF 63.6% w/w, pH 9.5, RT): >4.0 mg/mL
Peptide concentration after 5 min (DMF 63.6% w/w, pH 10.0, RT): 3.7 mg/mL
Compound: CCCCCCCCCCCCCCCC(=O)N[C@@H](CCC(=O)NCCCC[C@H](NC(=O)[C@H](C)NC(=O)[C@H](C)NC(=O)[C@H](CCC(N)=O)NC(=O)CNC(=O)[C@H](CCC(=O)O)NC(=O)[C@H](CC(C)C)NC(=O)[C@H](Cc1ccc(O)cc1)NC(=O)[C@H](CO)NC(=O)[C@H](CO)NC(=O)[C@@H](NC(=O)[C@H](CC(=O)O)NC(=O)[C@H](CO)NC(=O)[C@@H](NC(=O)[C@H](Cc1ccccc1)NC(=O)[C@@H](NC(=O)CNC(=O)[C@H](CCC(=O)O)NC(=O)[C@H](C)NC(=O)[C@@H](N)Cc1cnc[nH]1)[C@@H](C)O)[C@@H](C)O)C(C)C)C(=O)N[C@@H](CCC(=O)O)C(=O)N[C@@H](Cc1ccccc1)C(=O)N[C@H](C(=O)N[C@@H](C)C(=O)N[C@@H](Cc1c[nH]c2ccccc12)C(=O)N[C@@H](CC(C)C)C(=O)N[C@H](C(=O)N[C@@H](CCCNC(=N)N)C(=O)NCC(=O)N[C@@H](CCCNC(=N)N)C(=O)NCC(=O)O)C(C)C)[C@@H](C)CC)C(=O)O [liraglutide, Arg34,Lys26-(N-epsilon-(gamma-L-glutamyl(N-alfa-hexadecanoyl)))-GLP-1(7-37)]
